## Assay results

Source: PubChem BioAssay AID1159506 (NCATS, 2015).

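Genome-wide siRNA knockdown in TC32 Ewing sarcoma cells, comparing luciferase light from an NR0B1-promoter reporter with a CMV-promoter reporter 48 hours after transfection. Each siRNA was applied at 20 nM. A z-score of the log NR0B1-over-CMV signal, less the median of siRNAs with the same seed; more negative means a stronger specific loss of the NR0B1 reporter.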

The strongest results of the screen are mostly left out here. Sequences are the guide (antisense) strand, without overhang.

- UGUCUGUAUAGCCCUAUUC against OR10Z1 | seed-corrected z-score 0.283
- UGAUGUUCCGGAAGAAGGC against KCNA6 | seed-corrected z-score -0.07713
- UUGCUAUUCGCAGUGCCCG against ADAD2 | seed-corrected z-score -0.2913
- UUUGCAGCUCUUGCGAUGC against DPYD | seed-corrected z-score -0.9531
- AACAUCACCACAUUAAGCC against COL7A1 | seed-corrected z-score 0.04635
- GUAGUUACGAGGGUAGUGU against SMR3A | seed-corrected z-score 0.4304
- UGAACUCUCAGCAUGCCUC against TMED9 | seed-corrected z-score -0.2544
- UUAGUUCUGAUUUCAGGUC against ANXA5 | seed-corrected z-score -0.5391
- AUCUGGGAAACGAACAGUC against CHRNA7 | seed-corrected z-score -0.331
- AGAGUAAUAACAUUGACAG against TSG101 | seed-corrected z-score -0.6401
- UAAAGUACCACUUCUCUGC against CERKL | seed-corrected z-score -0.04723
- UGCGGUAUUGGUUAGCAUG against ZNF608 | seed-corrected z-score -0.4699
- UUUCUUCACACGGACCAGA against DFNB31 | seed-corrected z-score -1.238
- UAUCAGAUCUUUUGAAUCG against MBTD1 | seed-corrected z-score 0.1116
- UUUGAGUUGAGGGUGAUGG against YIPF6 | seed-corrected z-score 0.2835
- UGUAGGUAAAGGAUGUUGU against USP35 | seed-corrected z-score -0.1782
- ACUAUCAAAAUUACUGUCC against ADAM2 | seed-corrected z-score -0.6518
- CCAGCCAAACUCUUCAAGC against DUSP15 | seed-corrected z-score 0.02089
- UUUCGUGAGAUGAGCUGCC against ANXA9 | seed-corrected z-score -0.2099
- UCUAACAAAACGAACAACC against LRRC58 | seed-corrected z-score -0.2176
- UCCUUCAGAACCGUAAGCU against CELF4 | seed-corrected z-score 1.402
- AAUUGAUCAAUGAAUGCUG against ZBTB6 | seed-corrected z-score 1.175
- UUUGUUCCGGGUGAUGUAG against PES1 | seed-corrected z-score 0.03285
- UAGAGGACAAUACAUACCU against CKMT1B | seed-corrected z-score 0.3203
- UUCUGUAUCCAGUCGCUGG against LRRC31 | seed-corrected z-score -0.3219
- AAUUAUUUAACGGGCUUGC against FXYD3 | seed-corrected z-score 0.608
- UCUGGACAAAGAUAGGCUG against COX10 | seed-corrected z-score -0.5049
- AUUGAAUCCUUGUUGAGCU against RPL7P56 | seed-corrected z-score 1.479
- UUUCCGAAACUGAACCUUC against ELL | seed-corrected z-score 0.0669
- UGCUCUUUUAGGUUAAUCC against SASH1 | seed-corrected z-score -0.05554
- UGAUGAACAUCUGAUUUUC against C1orf234 | seed-corrected z-score -0.0294
- UCACGAUGAAGUGUCCUUG against AVPR2 | seed-corrected z-score -0.4044
- UCUUGUUGCAGUCUGGGUC against CELSR2 | seed-corrected z-score -0.837
- ACAAUGUUCAGUACUCGGC against P2RY4 | seed-corrected z-score -0.2933
- UAAACUAUCAAAUCAACAG against TK2 | seed-corrected z-score 0.3474
- UCAGCGAUGUUACAGAUGC against XRRA1 | seed-corrected z-score -1.084
- UUCCGCAAGAGAAAACGGC against SLFN5 | seed-corrected z-score 0.506
- UAUCUUCUUCUAUCUUUGC against DDI2 | seed-corrected z-score -0.435
- UUCUGAUCCCGAUAGACCA against KLC2 | seed-corrected z-score 0.5873
- AGUCCAAUCCGUCUAAUGG against GYS2 | seed-corrected z-score 0.00973
- UAAUCGACACUGAGAGACC against ABCB11 | seed-corrected z-score -0.1755
- UAAUGAAUUUAUACCUGCC against DEFB134 | seed-corrected z-score -0.5645
- UUAAGCUCAUACUAGAUCU against EARS2 | seed-corrected z-score 0.3487
- AAAGUAAACUCCCUCACGG against GPHB5 | seed-corrected z-score 0.5918
- UGUAGUCUACAGAUAGGUC against ZKSCAN7 | seed-corrected z-score -0.1672

Repeated from the top, 3 entries:

strand	gene	seed-corrected z-score
UGUCUGUAUAGCCCUAUUC	OR10Z1	0.283
UGAUGUUCCGGAAGAAGGC	KCNA6	-0.07713
UUGCUAUUCGCAGUGCCCG	ADAD2	-0.2913